Experimental data: US20220315574A1, “Beta-Arrestin-Modulating Compounds and Methods of Using Same” (Duke University, priority 2019, published 2022)
Structures can show the parent of a compound that is named as a salt. For some of these results: At least one compound was matched to its structure with a doubt left. Some entries share one result that the patent states for a list of compounds.

Amino acid sequences for entries named in this document (tags omitted). A change or cut given only in a name is not applied to a line headed by its entry.
UniProt P32121, whole entry: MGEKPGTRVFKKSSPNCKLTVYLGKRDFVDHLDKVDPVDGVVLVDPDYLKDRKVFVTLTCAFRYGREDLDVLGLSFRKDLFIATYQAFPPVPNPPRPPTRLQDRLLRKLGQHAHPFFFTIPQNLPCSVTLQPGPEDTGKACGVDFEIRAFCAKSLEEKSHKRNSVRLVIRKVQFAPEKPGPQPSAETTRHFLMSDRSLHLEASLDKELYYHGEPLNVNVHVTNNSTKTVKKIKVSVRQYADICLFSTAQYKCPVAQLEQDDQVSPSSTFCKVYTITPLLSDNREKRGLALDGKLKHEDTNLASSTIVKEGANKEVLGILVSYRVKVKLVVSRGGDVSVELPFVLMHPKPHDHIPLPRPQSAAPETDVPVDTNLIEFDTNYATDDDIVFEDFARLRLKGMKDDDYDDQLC
UniProt P29066: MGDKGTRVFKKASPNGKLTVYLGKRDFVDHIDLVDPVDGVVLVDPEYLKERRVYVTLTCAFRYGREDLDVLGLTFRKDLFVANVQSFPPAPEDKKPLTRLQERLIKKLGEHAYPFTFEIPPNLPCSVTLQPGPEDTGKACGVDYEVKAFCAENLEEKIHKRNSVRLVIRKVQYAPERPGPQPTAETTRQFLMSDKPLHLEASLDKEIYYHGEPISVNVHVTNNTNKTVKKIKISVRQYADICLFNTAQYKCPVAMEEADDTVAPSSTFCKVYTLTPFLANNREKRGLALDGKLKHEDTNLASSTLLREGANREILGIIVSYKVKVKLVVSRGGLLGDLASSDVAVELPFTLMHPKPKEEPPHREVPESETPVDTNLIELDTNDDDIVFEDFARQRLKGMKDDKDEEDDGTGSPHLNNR
UniProt P29067, whole entry: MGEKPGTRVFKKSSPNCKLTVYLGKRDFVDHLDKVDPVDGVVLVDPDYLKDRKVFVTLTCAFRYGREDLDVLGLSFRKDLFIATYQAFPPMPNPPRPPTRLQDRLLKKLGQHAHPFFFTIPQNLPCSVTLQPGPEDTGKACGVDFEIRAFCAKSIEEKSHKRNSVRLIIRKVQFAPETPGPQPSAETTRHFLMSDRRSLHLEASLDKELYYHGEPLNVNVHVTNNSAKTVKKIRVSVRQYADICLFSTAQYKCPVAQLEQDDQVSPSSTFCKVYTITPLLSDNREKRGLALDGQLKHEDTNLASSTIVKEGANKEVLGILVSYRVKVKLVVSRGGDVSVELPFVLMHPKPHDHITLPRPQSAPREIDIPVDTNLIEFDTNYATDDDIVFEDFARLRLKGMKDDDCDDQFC

Key:
[1] = target: T1, βarr2 recruitment to agonist-activated β2V2R (Homo sapiens, UniProt P32121); experiment: DiscoveRx PathHunter β-arrestin recruitment assay in U2OS cells; assay type: cell-based; settings: calculated for the two assays: βarr recruitment (50 μM) and receptor-βarr endocytosis (25 μM)
T1 construct: host or cells: U2OS
Protocol: β-arrestin recruitment to the agonist-activated receptor (02V2R) was measured using the DiscoveRx PathHunter β-arrestin assay (Ahn, S. et al. Allosteric “beta-blocker” isolated from a DNA-encoded small molecule library. Proc Natl Acad Sci U SA 114, 1708-1713, doi:10.1073/pnas.1620645114 (2017)). […] Agonist-stimulated recruitment of βarr2 to the receptor results in the formation of functionally active β-gal enzyme. Addition of substrate generates a chemiluminescence signal directly correlated to the extent of recruitment. U2OS cells co-expressing β2V2R and βarr2 were plated in 96-well clear-bottomed plates at a density of 25,000 cells per well (80 μL per well), 24 hours prior to compound treatment. On the day of experiment, cells were first treated with compound or vehicle for 30 min, followed by agonist (Iso) stimulation for 60 min at 37° C. Cells were then treated with PathHunter™ detection reagents for 90 min at 37° C., and luminescence signals were measured using a CLARIOstar microplate reader (BMG Labtech Inc., Cary, N.C.).

[2] = target: T2, βarr1 (Rattus norvegicus, UniProt P29066); experiment: Fluorescence-based thermal shift assay (FTSA), validation with known binders; assay type: binding; settings: apo βarr1 Tm approximately 54.5° C.
T2 construct: made in house

[3] = target: βarr2 (Rattus norvegicus, UniProt P29067); experiment: as above; assay type: binding; set-up: made in house; settings: apo βarr2 Tm 49° C.

Row | SMILES | percent inhibition of βarr activity [1] [%] | shift of unfolding transition (ΔTm), βarr1 [2] | shift of unfolding transition (ΔTm), βarr2 [3]
1 | C=C1C(=O)C23[C@H](O)C1CC[C@H]2[C@]12COC3(O)[C@@H](O)[C@@H]1C(C)(C)CC[C@@H]2O [Cmpd-5, (1R,2S,10S,11R,15S,18R)-9,10,15,18-tetrahydroxy-12,12-dimethyl-6-methylidene-17-oxapentacyclo[7.6.2.15,8.01,11.02,8]octadecan-7-one] | ≥ 40 |  | 
2 | CN(C)c1n/c(=N/Cc2ccco2)ss1 [Cmpd-30, 5-(furan-2-ylmethylimino)-N,N-dimethyl-1,2,4-dithiazol-3-amine;hydrobromide] | ≥ 40 |  | 
3 | O=P(O)(O)OC1C(OP(=O)(O)O)C(OP(=O)(O)O)C(OP(=O)(O)O)C(OP(=O)(O)O)C1OP(=O)(O)O (stereo not shown) [IP6, inositol hexakisphosphate] |  | ≥2 °C or ≤−2 °C | ≥2 °C or ≤−2 °C
